# Data: the supplement of paper PMC4635364
# Counter-ions that a name gives are not always drawn. The list shows a part of the results. Repeats in this data set agree poorly, so a single value says little.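 Cells: ReNCell VM human fetal ventral-midbrain neural progenitors, differentiated mitogen-free. Blinded raters compared doublecortin-stained (early neurons) or tyrosine hydroxylase-stained (dopaminergic neurons) images with untreated wells, where 0 means no change. After repeats and both raters were averaged, compounds scoring 2 or above became hits for retesting.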
# Experiments:
# ReNCell VM [1] = experiment: neuronal differentiation score (DCX+ cell fraction vs untreated, manual image score) (score (-3 to 3)); higher = more neuronal differentiation; settings: 2 uM, 2 weeks
# ReNCell VM [2] = experiment: dopaminergic neuron differentiation score (TH+ cell fraction vs untreated, manual image score) (score (0 to 3)); higher = more TH+ dopaminergic neuron differentiation; settings: 2 uM, 4 weeks, BDNF 10 ng/ml + GDNF 10 ng/ml
smiles,measurement,setting,value
CCCC(C)C1(CC)C(=O)NC(=O)NC1=O (stereo unspecified) [Pentobarbital],neuronal differentiation score,ReNCell VM [1]; library: Prestwick,inactive: 0
same,dopaminergic neuron differentiation score,ReNCell VM [2]; library: Prestwick,inactive: 0
C#C[C@]1(O)CC[C@H]2[C@@H]3CCC4=CC(=O)CC[C@]4(C)[C@H]3CC[C@@]21C,neuronal differentiation score,ReNCell VM [1]; library: Spectrum,inactive: 0
same,dopaminergic neuron differentiation score,ReNCell VM [2]; library: Spectrum,inactive: 0
CC(C)NC(C)Cc1ccc(I)cc1 (stereo unspecified) [Iofetamine hydrochloride],neuronal differentiation score,ReNCell VM [1]; library: LOPAC,inactive: 0
same,dopaminergic neuron differentiation score,ReNCell VM [2]; library: LOPAC,inactive: 0
"C[N+]1(C)CCc2cc3c(cc2C1C1OC(=O)c2c1ccc1c2OCO1)OCO3 (single isomer, unassigned; (-)) [(-)-Bicuculline methobromide]",neuronal differentiation score,ReNCell VM [1]; library: Tocriscreen,inactive: 0
same,dopaminergic neuron differentiation score,ReNCell VM [2]; library: Tocriscreen,inactive: 0
NCC(O)c1ccc(O)cc1 (stereo unspecified) [Octopamine hydrochloride],neuronal differentiation score,ReNCell VM [1]; library: Tocriscreen,inactive: 0
same,dopaminergic neuron differentiation score,ReNCell VM [2]; library: Tocriscreen,inactive: 0
C[C@@H]1O[C@@H](O[C@@H]2C=C3CC[C@@H]4[C@H](CC[C@]5(C)[C@@H](c6ccc(=O)oc6)CC[C@]45O)[C@@]3(C)CC2)[C@H](O)[C@H](O)[C@H]1O [Proscillaridin A],neuronal differentiation score,ReNCell VM [1]; library: Prestwick,inactive: 0
same,dopaminergic neuron differentiation score,ReNCell VM [2]; library: Prestwick,inactive: 0
CCN(CC)CCO[C@H]1CC[C@@]2(C)C(=CC[C@@H]3[C@@H]2CC[C@]2(C)C(=O)CC[C@@H]32)C1,neuronal differentiation score,ReNCell VM [1]; library: Tocriscreen,inactive: 0
same,dopaminergic neuron differentiation score,ReNCell VM [2]; library: Tocriscreen,inactive: 0
CC(=O)OCC1=C(C(=O)O)N2C(=O)[C@@H](NC(=O)CCC[C@@H](N)C(=O)O)[C@H]2SC1,neuronal differentiation score,ReNCell VM [1]; library: Spectrum,inactive: 0
same,dopaminergic neuron differentiation score,ReNCell VM [2]; library: Spectrum,inactive: 0
CC(=O)O[C@@H]1[C@H]2CC[C@H]3[C@@](C)(O)[C@@H]4C[C@H](O)C(C)(C)[C@@]4(O)[C@H](O)C[C@@]13C[C@@]2(C)O,neuronal differentiation score,ReNCell VM [1]; library: Spectrum,inactive: 0
same,dopaminergic neuron differentiation score,ReNCell VM [2]; library: Spectrum,inactive: 0
C[C@H]1CC[C@]2(NC1)O[C@H]1C[C@H]3[C@@H]4CC[C@H]5C[C@@H](O)CC[C@]5(C)[C@H]4CC[C@]3(C)[C@H]1[C@@H]2C,neuronal differentiation score,ReNCell VM [1]; library: Spectrum,inactive: 0
same,dopaminergic neuron differentiation score,ReNCell VM [2]; library: Spectrum,inactive: 0
O=S1(=O)N(CCN2CC=C(c3c[nH]c4cc(F)ccc34)CC2)c2cccc3c2N1CCC3,neuronal differentiation score,ReNCell VM [1]; library: LOPAC,inactive: 0
same,dopaminergic neuron differentiation score,ReNCell VM [2]; library: LOPAC,inactive: 1
CC(=O)NBr [N-Bromoacetamide],neuronal differentiation score,ReNCell VM [1]; library: LOPAC,inactive: -1
same,dopaminergic neuron differentiation score,ReNCell VM [2]; library: LOPAC,inactive: 0
CN1CC[C@@]2(C)c3cc(O)ccc3N(C)C12 (stereo partly specified),neuronal differentiation score,ReNCell VM [1]; library: Spectrum,inactive: 0
same,dopaminergic neuron differentiation score,ReNCell VM [2]; library: Spectrum,inactive: 0
CC(=O)O[C@H]1C[C@@H](OC(C)=O)C(C)(C)C2C[C@@H](OC(C)=O)[C@]3(C)C(CC[C@@]4(C)[C@H](c5ccoc5)C(=O)[C@H]5O[C@]543)[C@]21C (stereo partly specified),neuronal differentiation score,ReNCell VM [1]; library: Spectrum,inactive: 0
same,dopaminergic neuron differentiation score,ReNCell VM [2]; library: Spectrum,inactive: 1
NCc1cccnc1,neuronal differentiation score,ReNCell VM [1]; library: Spectrum,inactive: 0
same,dopaminergic neuron differentiation score,ReNCell VM [2]; library: Spectrum,inactive: 0
FC(F)(F)c1cccc(C2=CCN(CCc3ccc4ccccc4c3)CC2)c1 [Xaliproden hydrochloride],neuronal differentiation score,ReNCell VM [1]; library: Tocriscreen,inactive: 0
same,dopaminergic neuron differentiation score,ReNCell VM [2]; library: Tocriscreen,inactive: 0
NCCCP(=O)(O)O [3-Aminopropylphosphonic acid],neuronal differentiation score,ReNCell VM [1]; library: LOPAC,inactive: 0
same,dopaminergic neuron differentiation score,ReNCell VM [2]; library: LOPAC,inactive: 0
CCn1cc(C(=O)O)c(=O)c2cc3c(cc21)OCO3,neuronal differentiation score,ReNCell VM [1]; library: Spectrum,inactive: 0
same,dopaminergic neuron differentiation score,ReNCell VM [2]; library: Spectrum,inactive: 0
COc1ccc2c(c1)[C@@]13CCCC[C@H]1[C@@H](C2)NCC3 [3-Methoxy-morphanin hydrochloride],neuronal differentiation score,ReNCell VM [1]; library: LOPAC,inactive: 0
same,dopaminergic neuron differentiation score,ReNCell VM [2]; library: LOPAC,inactive: 0
C[N+](C)(C)CC#CCN1CCCC1=O [Oxotremorine methiodide],neuronal differentiation score,ReNCell VM [1]; library: LOPAC,inactive: 0
same,dopaminergic neuron differentiation score,ReNCell VM [2]; library: LOPAC,inactive: 0
"CCC1(c2ccc(N)cc2)CCC(=O)NC1=O (stereo unspecified) [Glutethimide, para-amino]",neuronal differentiation score,ReNCell VM [1]; library: Prestwick,inactive: 0
same,dopaminergic neuron differentiation score,ReNCell VM [2]; library: Prestwick,inactive: 0
CNC(C)(C)Cc1ccccc1 [Mephentermine hemisulfate],neuronal differentiation score,ReNCell VM [1]; library: Prestwick,inactive: 0
same,dopaminergic neuron differentiation score,ReNCell VM [2]; library: Prestwick,inactive: 0
O=C1CCCN1CC#CCN1CCCC1 [Oxotremorine sesquifumarate salt],neuronal differentiation score,ReNCell VM [1]; library: LOPAC,inactive: 0
same,dopaminergic neuron differentiation score,ReNCell VM [2]; library: LOPAC,inactive: 0
CC(C)(O)C(Cl)(Cl)Cl,neuronal differentiation score,ReNCell VM [1]; library: Spectrum,inactive: 0
same,dopaminergic neuron differentiation score,ReNCell VM [2]; library: Spectrum,inactive: 0
CC[C@@]1(O)C[C@H](O[C@H]2C[C@H](N(C)C)[C@H](O)[C@H](C)O2)c2c(cc3c(c2O)C(=O)c2c(O)ccc(O)c2C3=O)[C@H]1C(=O)OC,neuronal differentiation score,ReNCell VM [1]; library: Spectrum,inactive: 0
same,dopaminergic neuron differentiation score,ReNCell VM [2]; library: Spectrum,inactive: 0
CN(C)CCN(C)CCc1ccc(Cl)c(Cl)c1 [BD 1047 dihydrobromide],neuronal differentiation score,ReNCell VM [1]; library: Tocriscreen,inactive: 0
same,dopaminergic neuron differentiation score,ReNCell VM [2]; library: Tocriscreen,inactive: 0
CC[N+](CC)(CCCNC1=CC(=O)C(NCCC[N+](CC)(CC)Cc2ccccc2)=CC1=O)Cc1ccccc1 [Benzoquinonium dibromide],neuronal differentiation score,ReNCell VM [1]; library: Tocriscreen,inactive: 0
same,dopaminergic neuron differentiation score,ReNCell VM [2]; library: Tocriscreen,inactive: 0
C[C@@H]1O[C@@H](O[C@H]2C[C@@H](O)[C@]3(CO)[C@H]4[C@H](O)C[C@]5(C)[C@@H](C6=CC(=O)OC6)CC[C@]5(O)[C@@H]4CC[C@]3(O)C2)[C@H](O)[C@H](O)[C@H]1O,neuronal differentiation score,ReNCell VM [1]; library: Spectrum,inactive: 0
same,dopaminergic neuron differentiation score,ReNCell VM [2]; library: Spectrum,inactive: 0

# Laid out differently: entries from further up.
smiles | measurement | setting | value
NCc1cccnc1 | dopaminergic neuron differentiation score | ReNCell VM [2]; library: Spectrum | inactive: 0
O=C1CCCN1CC#CCN1CCCC1 [Oxotremorine sesquifumarate salt] | neuronal differentiation score | ReNCell VM [1]; library: LOPAC | inactive: 0
CN(C)CCN(C)CCc1ccc(Cl)c(Cl)c1 [BD 1047 dihydrobromide] | dopaminergic neuron differentiation score | ReNCell VM [2]; library: Tocriscreen | inactive: 0
